No constants are given. Whether binding was seen depends on the method and setting. Binding seen in cells or lysates may run through a third protein. Some binding calls cover weakened binding; strength is not graded here.
Target: NOD-, LRR- and pyrin domain-containing protein-3 (NLRP3) (mouse) (UniProt Q8R4B8)
Assay: co-immunoprecipitation: IP of NLRP3 from BRAFV600E PTEN-/- melanoma cell lysate, Western blot for PKR

Protein sequences, listed by entry. Tags and fused reporters are not part of them.
UniProt Q8R4B8: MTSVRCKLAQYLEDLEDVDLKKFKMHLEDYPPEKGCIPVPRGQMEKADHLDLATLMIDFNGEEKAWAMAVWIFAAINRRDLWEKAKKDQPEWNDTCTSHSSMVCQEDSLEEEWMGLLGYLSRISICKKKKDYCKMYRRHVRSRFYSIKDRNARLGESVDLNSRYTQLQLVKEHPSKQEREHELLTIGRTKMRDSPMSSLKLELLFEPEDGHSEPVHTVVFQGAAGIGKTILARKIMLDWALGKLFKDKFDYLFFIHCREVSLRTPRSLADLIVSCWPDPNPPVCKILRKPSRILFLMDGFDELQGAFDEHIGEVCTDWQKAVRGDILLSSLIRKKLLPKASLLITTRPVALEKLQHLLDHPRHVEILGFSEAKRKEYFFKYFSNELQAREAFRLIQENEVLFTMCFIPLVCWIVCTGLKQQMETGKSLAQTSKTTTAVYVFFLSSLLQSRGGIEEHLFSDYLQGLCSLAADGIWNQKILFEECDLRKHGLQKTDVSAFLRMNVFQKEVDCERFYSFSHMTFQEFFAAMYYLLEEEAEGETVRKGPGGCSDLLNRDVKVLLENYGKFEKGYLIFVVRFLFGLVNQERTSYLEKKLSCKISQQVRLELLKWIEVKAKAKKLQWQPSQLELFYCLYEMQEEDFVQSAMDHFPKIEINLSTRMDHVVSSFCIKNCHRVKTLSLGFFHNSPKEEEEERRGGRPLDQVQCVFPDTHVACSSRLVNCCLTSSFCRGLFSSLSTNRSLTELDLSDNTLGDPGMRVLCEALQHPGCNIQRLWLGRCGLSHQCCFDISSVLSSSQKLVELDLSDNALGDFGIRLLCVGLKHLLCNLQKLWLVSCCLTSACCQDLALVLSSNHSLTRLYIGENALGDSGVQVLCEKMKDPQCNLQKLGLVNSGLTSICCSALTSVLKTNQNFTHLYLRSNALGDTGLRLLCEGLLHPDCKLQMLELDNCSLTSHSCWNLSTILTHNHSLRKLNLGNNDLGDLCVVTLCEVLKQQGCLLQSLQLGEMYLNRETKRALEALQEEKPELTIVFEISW

B1: dsRNA-dependent protein kinase R (PKR) (enzyme, mouse, UniProt Q03963 2-515, looked up)
chain: ASDTPGFYMDKLNKYRQMHGVAITYKELSTSGPPHDRRFTFQVLIDEKEFPEAKGRSKQEARNAAAKLAVDILDNENKVDCHTSASEQGLFVGNYIGLVNSFAQKKKLSVNYEQCEPNSELPQRFICKCKIGQTMYGTGSGVTKQEAKQLAAKEAYQKLLKSPPKTAGTSSSVVTSTFSGFSSSSSMTSNGVSQSAPGSFSSENVFTNGLGENKRKSGVKVSPDDVQRNKYTLDARFNSDFEDIEEIGLGGFGQVFKAKHRIDGKRYAIKRVKYNTEKAEHEVQALAELNHVNIVQYHSCWEGVDYDPEHSMSDTSRYKTRCLFIQMEFCDKGTLEQWMRNRNQSKVDKALILDLYEQIVTGVEYIHSKGLIHRDLKPGNIFLVDERHIKIGDFGLATALENDGKSRTRRTGTLQYMSPEQLFLKHYGKEVDIFALGLILAELLHTCFTESEKIKFFESLRKGDFSNDIFDNKEKSLLKKLLSEKPKDRPETSEILKTLAEWRNISEKKKRNTC
With B1 the binding was “binds”.

— patent publication US20210077582A1
